Test results from the supplement of paper PMC7052299.
This is one part of the list. Most values come without repeats; read them as rough.

Test system: Danio rerio embryo (th-expressing DA/NA neurons)
Assay: percentage of embryos with altered th expression (decrease or increase vs DMSO control) in brain region; higher = more embryos with altered dopaminergic/noradrenergic marker expression; extreme values may be limits of the assay
Details: treatment window: 24-72 hpf, fixed 96 hpf
[1] = 1 µM, brain region: telencephalon
[2] = 3 µM, brain region: telencephalon
[3] = 10 µM, brain region: telencephalon
[4] = 30 µM, brain region: telencephalon

Measured: percentage of embryos with altered th expression

O=C(O)c1ccc(-n2nc(-c3ccccc3O)nc2-c2ccccc2O)cc1 [Deferasirox]
0%: [1] | [2] | 10 µM, brain region: DC1 | 10 µM, brain region: DC2 | 10 µM, brain region: DC3 | 10 µM, brain region: DC 4,5,6 | 10 µM, brain region: LC | 10 µM, brain region: MO | 10 µM, brain region: Pretectum | [3] | 30 µM, brain region: DC1 | 30 µM, brain region: DC2 | 30 µM, brain region: DC3 | 30 µM, brain region: DC 4,5,6 | 30 µM, brain region: LC | 30 µM, brain region: MO | 30 µM, brain region: Pretectum | [4]

Cc1cc(=O)n(C)c2cc(N3C(=O)CC[C@H](NS(=O)(=O)CC(C)C)[C@H]3c3ccc(Cl)cc3)ccc12
0%: 1 µM, brain region: DC1 | 1 µM, brain region: DC2 | 1 µM, brain region: DC3 | 1 µM, brain region: DC 4,5,6 | 1 µM, brain region: LC | 1 µM, brain region: MO | 1 µM, brain region: Pretectum | [1] | 3 µM, brain region: DC1 | 3 µM, brain region: DC2 | 3 µM, brain region: DC3 | 3 µM, brain region: DC 4,5,6 | 3 µM, brain region: LC | 3 µM, brain region: MO | 3 µM, brain region: Pretectum | [2] | 10 µM, brain region: DC1 | 10 µM, brain region: DC2 | 10 µM, brain region: DC3 | 10 µM, brain region: DC 4,5,6 | 10 µM, brain region: LC | 10 µM, brain region: MO | 10 µM, brain region: Pretectum | [3] | 30 µM, brain region: DC1 | 30 µM, brain region: DC2 | 30 µM, brain region: DC3 | 30 µM, brain region: DC 4,5,6 | 30 µM, brain region: LC | 30 µM, brain region: MO | 30 µM, brain region: Pretectum | [4]

CC(C)N(CCCNC(=O)Nc1ccc(C(C)(C)C)cc1)C[C@H]1O[C@@H](n2cc(Br)c3c(N)ncnc32)[C@H](O)[C@@H]1O
9.09%: 10 µM, brain region: DC 4,5,6 | 10 µM, brain region: Pretectum | [3] | 30 µM, brain region: DC 4,5,6
0%: 1 µM, brain region: DC1 | 1 µM, brain region: DC2 | 1 µM, brain region: DC3 | 1 µM, brain region: DC 4,5,6 | 1 µM, brain region: LC | 1 µM, brain region: MO | 1 µM, brain region: Pretectum | [1] | 3 µM, brain region: DC1 | 3 µM, brain region: DC2 | 3 µM, brain region: DC3 | 3 µM, brain region: DC 4,5,6 | 3 µM, brain region: LC | 3 µM, brain region: MO | 3 µM, brain region: Pretectum | [2] | 10 µM, brain region: DC1 | 10 µM, brain region: DC2 | 10 µM, brain region: DC3 | 10 µM, brain region: LC | 10 µM, brain region: MO | 30 µM, brain region: DC1 | 30 µM, brain region: DC2 | 30 µM, brain region: DC3 | 30 µM, brain region: LC | 30 µM, brain region: MO | 30 µM, brain region: Pretectum | [4]

CCCc1cc(C)[nH]c(=O)c1CNC(=O)c1cc(-c2ccnc(N3CCN(C)CC3)c2)cc2c1cnn2C(C)C
0%: 1 µM, brain region: DC1 | 1 µM, brain region: DC2 | 1 µM, brain region: DC3 | 1 µM, brain region: DC 4,5,6 | 1 µM, brain region: LC | 1 µM, brain region: MO | 1 µM, brain region: Pretectum | [1] | 3 µM, brain region: DC1 | 3 µM, brain region: DC2 | 3 µM, brain region: DC3 | 3 µM, brain region: DC 4,5,6 | 3 µM, brain region: LC | 3 µM, brain region: MO | 3 µM, brain region: Pretectum | [2] | 10 µM, brain region: DC1 | 10 µM, brain region: DC2 | 10 µM, brain region: DC3 | 10 µM, brain region: DC 4,5,6 | 10 µM, brain region: LC | 10 µM, brain region: MO | 10 µM, brain region: Pretectum | [3] | 30 µM, brain region: DC1 | 30 µM, brain region: DC2 | 30 µM, brain region: DC3 | 30 µM, brain region: DC 4,5,6 | 30 µM, brain region: LC | 30 µM, brain region: MO | 30 µM, brain region: Pretectum | [4]

COc1cc(C#N)ccc1S(=O)(=O)Nc1ccc2c(c1)cc(C)c(=O)n2C
0%: 1 µM, brain region: DC1 | 1 µM, brain region: DC2 | 1 µM, brain region: DC3 | 1 µM, brain region: DC 4,5,6 | 1 µM, brain region: LC | 1 µM, brain region: MO | 1 µM, brain region: Pretectum | [1] | 3 µM, brain region: DC1 | 3 µM, brain region: DC2 | 3 µM, brain region: DC3 | 3 µM, brain region: DC 4,5,6 | 3 µM, brain region: LC | 3 µM, brain region: MO | 3 µM, brain region: Pretectum | [2] | 10 µM, brain region: DC1 | 10 µM, brain region: DC2 | 10 µM, brain region: DC3 | 10 µM, brain region: DC 4,5,6 | 10 µM, brain region: LC | 10 µM, brain region: MO | 10 µM, brain region: Pretectum | [3] | 30 µM, brain region: DC1 | 30 µM, brain region: DC2 | 30 µM, brain region: DC3 | 30 µM, brain region: DC 4,5,6 | 30 µM, brain region: LC | 30 µM, brain region: MO | 30 µM, brain region: Pretectum | [4]

O=c1c(Cl)c(C(F)(F)F)oc2ccc([N+](=O)[O-])cc12 [Namoline]
83.3%: 10 µM, brain region: DC 4,5,6
0%: 1 µM, brain region: DC1 | 1 µM, brain region: DC2 | 1 µM, brain region: DC3 | 1 µM, brain region: DC 4,5,6 | 1 µM, brain region: LC | 1 µM, brain region: MO | 1 µM, brain region: Pretectum | 3 µM, brain region: DC1 | 3 µM, brain region: DC3 | 3 µM, brain region: LC | 3 µM, brain region: MO | 3 µM, brain region: Pretectum | 10 µM, brain region: DC1 | 10 µM, brain region: DC2 | 10 µM, brain region: MO | [4]
14.3%: [1] | 3 µM, brain region: DC2 | [2]
8.33%: 10 µM, brain region: Pretectum
33.3%: 10 µM, brain region: LC
25%: 10 µM, brain region: DC3 | [3]
28.6%: 3 µM, brain region: DC 4,5,6

O=C(/C=C/N1C[C@H]2C[C@@H]1CN2c1ccccn1)c1ccccc1O
16.7%: [4]
11.1%: 10 µM, brain region: DC 4,5,6
0%: 1 µM, brain region: DC1 | 1 µM, brain region: DC2 | 1 µM, brain region: DC3 | 1 µM, brain region: DC 4,5,6 | 1 µM, brain region: LC | 1 µM, brain region: MO | 1 µM, brain region: Pretectum | [1] | 3 µM, brain region: DC1 | 3 µM, brain region: DC2 | 3 µM, brain region: DC3 | 3 µM, brain region: DC 4,5,6 | 3 µM, brain region: LC | 3 µM, brain region: MO | 3 µM, brain region: Pretectum | [2] | 10 µM, brain region: DC1 | 10 µM, brain region: DC2 | 10 µM, brain region: DC3 | 10 µM, brain region: LC | 10 µM, brain region: MO | 10 µM, brain region: Pretectum | [3] | 30 µM, brain region: DC1 | 30 µM, brain region: DC2 | 30 µM, brain region: DC3 | 30 µM, brain region: DC 4,5,6 | 30 µM, brain region: LC | 30 µM, brain region: MO
33.3%: 30 µM, brain region: Pretectum

O=C([C@@H](Cc1cccc(C(F)(F)F)c1)NS(=O)(=O)c1cc(F)c2c(c1)CCNC2)N1CCCC1
0%: 1 µM, brain region: DC1 | 1 µM, brain region: DC2 | 1 µM, brain region: DC3 | 1 µM, brain region: DC 4,5,6 | 1 µM, brain region: LC | 1 µM, brain region: MO | 1 µM, brain region: Pretectum | [1] | 3 µM, brain region: DC1 | 3 µM, brain region: DC2 | 3 µM, brain region: DC3 | 3 µM, brain region: DC 4,5,6 | 3 µM, brain region: LC | 3 µM, brain region: MO | 3 µM, brain region: Pretectum | [2] | 10 µM, brain region: DC1 | 10 µM, brain region: DC2 | 10 µM, brain region: DC3 | 10 µM, brain region: DC 4,5,6 | 10 µM, brain region: LC | 10 µM, brain region: MO | 10 µM, brain region: Pretectum | [3] | 30 µM, brain region: DC1 | 30 µM, brain region: DC2 | 30 µM, brain region: DC3 | 30 µM, brain region: DC 4,5,6 | 30 µM, brain region: LC | 30 µM, brain region: MO | 30 µM, brain region: Pretectum | [4]

COc1cc(/C=C/C(=O)CC(=O)/C=C/c2ccc(O)c(OC)c2)ccc1O [Curcumin]
16.7%: 10 µM, brain region: DC 4,5,6 | 10 µM, brain region: LC | 30 µM, brain region: DC 4,5,6 | [4]
0%: 1 µM, brain region: DC1 | 1 µM, brain region: DC2 | 1 µM, brain region: DC3 | 1 µM, brain region: LC | 1 µM, brain region: MO | 1 µM, brain region: Pretectum | [1] | 3 µM, brain region: DC1 | 3 µM, brain region: DC2 | 3 µM, brain region: DC3 | 3 µM, brain region: DC 4,5,6 | 3 µM, brain region: LC | 3 µM, brain region: MO | 3 µM, brain region: Pretectum | [2] | 10 µM, brain region: DC1 | 10 µM, brain region: DC2 | 10 µM, brain region: DC3 | 10 µM, brain region: MO | 10 µM, brain region: Pretectum | [3] | 30 µM, brain region: DC1 | 30 µM, brain region: DC2 | 30 µM, brain region: DC3 | 30 µM, brain region: LC | 30 µM, brain region: MO | 30 µM, brain region: Pretectum
7.69%: 1 µM, brain region: DC 4,5,6
